Test results reported in publication PMC6617459.
These are yes or no findings as the source states them, for the method shown. In cells and extracts the contact can be indirect. For some assays here: Where a sequence is shown, tags or fusion partners need not be part of it.

B1: endogenous E3 ligase TMEM129 (enzyme, UniProt A0AVI4 1-362)
chain: MDSPEVTFTLAYLVFAVCFVFTPNEFHAAGLTVQNLLSGWLGSEDAAFVPFHLRRTAATLLCHSLLPLGYYVGMCLAASEKRLHALSQAPEAWRLFLLLAVTLPSIACILIYYWSRDRWACHPLARTLALYALPQSGWQAVASSVNTEFRRIDKFATGAPGARVIVTDTWVMKVTTYRVHVAQQQDVHLTVTESRQHELSPDSNLPVQLLTIRVASTNPAVQAFDIWLNSTEYGELCEKLRAPIRRAAHVVIHQSLGDLFLETFASLVEVNPAYSVPSSQELEACIGCMQTRASVKLVKTCQEAATGECQQCYCRPMWCLTCMGKWFASRQDPLRPDTWLASRVPCPTCRARFCILDVCTVR

Key:
[1] = biological target: T1, Myc-tagged Derlin-1 (human (HeLa cDNA)) (UniProt Q9BUN8); experiment: co-IP; HeLa^(FcRn+US11 Q192L) cells (US11 Q192L in place of wild-type US11), transfected with Myc-tagged Derlin-1 for 48 h; anti-FLAG or anti-Myc antibody; western blot
T1 sequence: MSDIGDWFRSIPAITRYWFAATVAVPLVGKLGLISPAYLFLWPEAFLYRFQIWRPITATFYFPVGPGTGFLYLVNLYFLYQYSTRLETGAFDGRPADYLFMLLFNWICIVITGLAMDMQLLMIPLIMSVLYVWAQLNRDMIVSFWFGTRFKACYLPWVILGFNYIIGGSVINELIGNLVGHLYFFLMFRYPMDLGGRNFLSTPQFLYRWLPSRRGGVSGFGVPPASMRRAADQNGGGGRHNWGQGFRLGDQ

[2] = biological target: HA-tagged HCMV US11 Q192L (HCMV AD169); experiment: co-IP; wild-type US11 or US11 Q192L precipitated, TMEM129 detected (Supplementary Fig. 8a); cells and antibodies not told in the text shown

| Molecule | binding [1] | binding [2] |
| --- | --- | --- |
| HA-tagged HCMV US11 Q192L | no binding | – |
| B1 | – | no binding |
